For this assay, the target named is Epitope-tagged Nav1.7 (voltage-gated sodium channel Nav1.7, TAP-tagged) (mouse) (UniProt Q62205). The experiment in a line: affinity purification with mass spectrometry.

Protein sequences, listed by entry. Tags and fused reporters are not part of them.
UniProt Q62205, whole entry: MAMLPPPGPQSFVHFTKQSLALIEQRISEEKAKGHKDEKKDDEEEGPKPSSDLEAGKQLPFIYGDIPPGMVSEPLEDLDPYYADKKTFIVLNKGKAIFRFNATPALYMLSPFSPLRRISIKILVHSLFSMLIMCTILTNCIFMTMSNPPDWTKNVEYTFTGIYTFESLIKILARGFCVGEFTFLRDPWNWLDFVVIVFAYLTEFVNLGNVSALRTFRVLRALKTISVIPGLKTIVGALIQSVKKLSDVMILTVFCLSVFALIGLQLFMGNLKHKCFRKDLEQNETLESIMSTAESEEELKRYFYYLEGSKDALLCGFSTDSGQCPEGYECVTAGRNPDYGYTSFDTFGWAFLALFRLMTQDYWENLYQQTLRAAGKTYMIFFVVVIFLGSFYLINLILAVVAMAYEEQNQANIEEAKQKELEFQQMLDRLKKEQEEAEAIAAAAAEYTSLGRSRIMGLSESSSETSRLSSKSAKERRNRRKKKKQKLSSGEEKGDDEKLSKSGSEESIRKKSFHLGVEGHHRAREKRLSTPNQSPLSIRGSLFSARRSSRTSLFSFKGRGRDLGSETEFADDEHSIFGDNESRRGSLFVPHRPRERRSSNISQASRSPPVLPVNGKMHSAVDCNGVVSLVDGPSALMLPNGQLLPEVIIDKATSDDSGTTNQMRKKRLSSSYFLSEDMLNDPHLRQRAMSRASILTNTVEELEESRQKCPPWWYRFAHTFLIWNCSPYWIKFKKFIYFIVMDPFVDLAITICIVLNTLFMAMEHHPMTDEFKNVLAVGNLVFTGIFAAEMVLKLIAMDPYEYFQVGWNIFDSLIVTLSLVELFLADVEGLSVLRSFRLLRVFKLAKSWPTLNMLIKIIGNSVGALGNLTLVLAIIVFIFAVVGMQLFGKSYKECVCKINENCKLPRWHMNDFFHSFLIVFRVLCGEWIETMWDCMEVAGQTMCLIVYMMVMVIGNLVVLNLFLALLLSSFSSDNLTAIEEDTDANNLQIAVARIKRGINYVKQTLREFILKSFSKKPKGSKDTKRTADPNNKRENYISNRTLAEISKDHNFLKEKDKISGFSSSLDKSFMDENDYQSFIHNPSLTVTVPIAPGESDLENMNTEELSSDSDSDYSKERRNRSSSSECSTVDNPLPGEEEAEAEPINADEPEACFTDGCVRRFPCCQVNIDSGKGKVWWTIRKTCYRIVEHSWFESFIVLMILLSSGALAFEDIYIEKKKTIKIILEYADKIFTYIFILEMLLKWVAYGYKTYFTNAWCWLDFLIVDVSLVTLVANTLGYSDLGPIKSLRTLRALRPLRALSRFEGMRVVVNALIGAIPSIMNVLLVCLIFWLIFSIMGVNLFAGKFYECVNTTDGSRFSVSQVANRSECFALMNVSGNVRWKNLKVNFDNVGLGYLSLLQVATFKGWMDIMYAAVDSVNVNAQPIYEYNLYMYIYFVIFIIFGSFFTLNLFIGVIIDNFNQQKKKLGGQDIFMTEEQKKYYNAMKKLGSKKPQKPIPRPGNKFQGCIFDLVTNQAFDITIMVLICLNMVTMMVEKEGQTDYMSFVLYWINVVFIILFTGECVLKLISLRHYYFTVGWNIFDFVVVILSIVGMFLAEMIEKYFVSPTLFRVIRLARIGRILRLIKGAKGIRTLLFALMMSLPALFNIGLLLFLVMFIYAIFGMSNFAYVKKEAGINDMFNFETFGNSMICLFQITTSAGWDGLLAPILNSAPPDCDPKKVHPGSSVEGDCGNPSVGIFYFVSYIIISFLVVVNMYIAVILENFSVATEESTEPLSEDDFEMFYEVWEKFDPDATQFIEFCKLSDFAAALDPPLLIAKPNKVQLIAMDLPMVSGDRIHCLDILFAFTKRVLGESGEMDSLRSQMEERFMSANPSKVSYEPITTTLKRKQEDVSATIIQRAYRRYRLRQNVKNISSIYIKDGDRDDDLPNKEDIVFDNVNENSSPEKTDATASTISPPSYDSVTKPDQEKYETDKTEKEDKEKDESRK

These are yes or no findings as the source states them, for the method shown. In cells and extracts the contact can be indirect. These calls come from enrichment with a bait or labelling near it, and not all partners need be listed.

B1: Gprin1 (protein, UniProt Q3UNH4 1-932)
chain: MRDCCSSPKAIPAPPRHALDQSLGMDPRHTSSSGAAEGASCSERPAGSLACPSPNCSPLPETPRAHGALTSDNSGTTLFGKPEPMSSAEATPTASEIRNPVFSGKMDGNSLKQADSTSTRKEEAGSLRNEESMLKGKAEPMIYGKGEPGTVGRVDCTASGAENSGSLGKVDMPCSSKVDIVSPGGDNAGSLRKVETISSGKMDPKTENVMHSRRERPGSTGEGDLVSLRENDMKPPDNTDSASTKKTDPEFSGKLTPGSSGKTELVSSVTVAPVTSENVNPVCSGGAGPAAVGNSETLSSVKKDPQLLGKKEAVSSGEGGSVSVRMAETVSARQPEGMFPAKTDSTSSNSTGPSGRADPVSLRNSELVSPVKPERLSSGQAERVSLVKTETLSSGKEDPRSSRRVDHTTVTGNMQTSQKGNPESSGKTDLGSSSSGDTRSLGTWGSLSAAKAEVTEGKGDPQPWKKASLPASEKTDPLASSKAGSASQGKAETVSPGEVDAMTLGKTVPTSSGKTALVSPGKVDLMTSERAEGIPELQASEKGNPVNSTRVDTGATGSTEPKSGVKVITQIPGATSPGKVETPSLQKEQPQLSEKTDPSRKVDPPTTVEPVSLGKADSASPSPRKAESQTSAKTVPQAPDKATSSLRQSDGTPYSSAQPQRDTRSIGSLPEREPSASTSQKDLAAAAAQKSPSAEAAAPPPGPRTRDNFTKAPSWDAGAPPPREDAGTQAGAQACVSVAVSPMSPQDGAGGPAFSFQAAPRAPSPAPRPPSRRDAGLQVSLGAAETRSVATGPMTPQAAAPPAVPPVFPEVRVRPGSVLAAALAPQEATEPVRDVSWDEKGMTWEVYGASMEVEVLGMAIQKHLERQIEEHGRQGAPAPAPPPAVRAGPGRAGSVRTAPAEGAAKRPPGLFRALLQSVRRPRCCSRAGPTAE
Take B1: the binding result is given as “binds”.

The record behind these values is doi:10.1101/117952.
